Measurements published in the supplement of paper PMC12819154, “High-throughput peptide-centric local stability assay extends protein–ligand identification to membrane proteins, tissues and bacteria” (Nature Structural & Molecular Biology, 2025).
This is one part of the list. Small differences around the control level are noise.

Sequences of proteins named here, by UniProt entry; tags and fusion partners are left off. A change or cut given only in a name is not applied to a line headed by its entry.
UniProt Q8IYU8: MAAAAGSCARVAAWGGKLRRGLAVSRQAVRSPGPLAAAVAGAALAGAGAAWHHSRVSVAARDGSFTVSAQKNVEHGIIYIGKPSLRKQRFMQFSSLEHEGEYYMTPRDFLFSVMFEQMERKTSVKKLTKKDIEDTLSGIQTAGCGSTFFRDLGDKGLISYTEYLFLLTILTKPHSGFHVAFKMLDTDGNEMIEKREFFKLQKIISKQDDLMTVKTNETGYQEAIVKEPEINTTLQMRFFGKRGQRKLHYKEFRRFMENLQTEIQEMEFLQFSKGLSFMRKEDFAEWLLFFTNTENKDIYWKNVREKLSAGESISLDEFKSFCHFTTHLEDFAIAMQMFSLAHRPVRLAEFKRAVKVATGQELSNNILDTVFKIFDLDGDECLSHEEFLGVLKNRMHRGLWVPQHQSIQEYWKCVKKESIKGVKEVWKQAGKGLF
UniProt Q8N3Y1: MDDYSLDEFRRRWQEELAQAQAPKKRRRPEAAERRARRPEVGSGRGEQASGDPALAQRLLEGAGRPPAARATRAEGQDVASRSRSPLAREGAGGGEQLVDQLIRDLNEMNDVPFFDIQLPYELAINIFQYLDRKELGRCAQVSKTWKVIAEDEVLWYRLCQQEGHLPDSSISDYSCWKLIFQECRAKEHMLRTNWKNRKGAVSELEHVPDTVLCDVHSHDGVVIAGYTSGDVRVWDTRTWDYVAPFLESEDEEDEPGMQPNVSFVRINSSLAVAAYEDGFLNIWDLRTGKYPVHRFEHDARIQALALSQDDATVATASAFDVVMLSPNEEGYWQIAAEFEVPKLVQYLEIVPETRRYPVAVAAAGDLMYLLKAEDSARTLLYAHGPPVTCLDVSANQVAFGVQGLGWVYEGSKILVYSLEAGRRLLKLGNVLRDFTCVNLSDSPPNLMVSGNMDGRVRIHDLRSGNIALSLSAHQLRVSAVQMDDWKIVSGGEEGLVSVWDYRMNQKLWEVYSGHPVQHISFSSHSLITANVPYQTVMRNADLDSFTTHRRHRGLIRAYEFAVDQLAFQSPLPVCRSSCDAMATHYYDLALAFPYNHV
UniProt Q86X02: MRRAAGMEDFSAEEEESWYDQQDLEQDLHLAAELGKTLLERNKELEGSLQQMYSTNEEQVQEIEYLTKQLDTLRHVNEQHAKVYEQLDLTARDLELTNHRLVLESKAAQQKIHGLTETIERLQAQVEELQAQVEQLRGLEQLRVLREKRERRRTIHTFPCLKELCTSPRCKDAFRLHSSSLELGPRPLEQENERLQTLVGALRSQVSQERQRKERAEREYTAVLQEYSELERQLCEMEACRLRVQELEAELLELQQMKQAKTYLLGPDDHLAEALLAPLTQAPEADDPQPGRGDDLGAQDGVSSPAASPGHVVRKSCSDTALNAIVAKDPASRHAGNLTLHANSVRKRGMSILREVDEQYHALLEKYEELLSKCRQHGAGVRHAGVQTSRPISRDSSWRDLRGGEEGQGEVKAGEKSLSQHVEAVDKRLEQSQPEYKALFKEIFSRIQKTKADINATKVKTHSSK
UniProt Q8IXX5: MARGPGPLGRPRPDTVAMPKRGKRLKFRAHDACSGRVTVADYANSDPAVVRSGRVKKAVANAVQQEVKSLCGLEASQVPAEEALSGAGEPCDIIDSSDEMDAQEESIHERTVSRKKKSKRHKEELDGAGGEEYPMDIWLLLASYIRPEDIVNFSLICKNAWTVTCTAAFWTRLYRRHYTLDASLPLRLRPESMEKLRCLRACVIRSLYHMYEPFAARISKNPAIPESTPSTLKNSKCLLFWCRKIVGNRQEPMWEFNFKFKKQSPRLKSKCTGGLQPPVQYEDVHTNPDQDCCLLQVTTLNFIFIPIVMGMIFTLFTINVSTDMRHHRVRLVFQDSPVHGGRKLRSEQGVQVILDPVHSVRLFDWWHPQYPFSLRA
UniProt Q86YN6: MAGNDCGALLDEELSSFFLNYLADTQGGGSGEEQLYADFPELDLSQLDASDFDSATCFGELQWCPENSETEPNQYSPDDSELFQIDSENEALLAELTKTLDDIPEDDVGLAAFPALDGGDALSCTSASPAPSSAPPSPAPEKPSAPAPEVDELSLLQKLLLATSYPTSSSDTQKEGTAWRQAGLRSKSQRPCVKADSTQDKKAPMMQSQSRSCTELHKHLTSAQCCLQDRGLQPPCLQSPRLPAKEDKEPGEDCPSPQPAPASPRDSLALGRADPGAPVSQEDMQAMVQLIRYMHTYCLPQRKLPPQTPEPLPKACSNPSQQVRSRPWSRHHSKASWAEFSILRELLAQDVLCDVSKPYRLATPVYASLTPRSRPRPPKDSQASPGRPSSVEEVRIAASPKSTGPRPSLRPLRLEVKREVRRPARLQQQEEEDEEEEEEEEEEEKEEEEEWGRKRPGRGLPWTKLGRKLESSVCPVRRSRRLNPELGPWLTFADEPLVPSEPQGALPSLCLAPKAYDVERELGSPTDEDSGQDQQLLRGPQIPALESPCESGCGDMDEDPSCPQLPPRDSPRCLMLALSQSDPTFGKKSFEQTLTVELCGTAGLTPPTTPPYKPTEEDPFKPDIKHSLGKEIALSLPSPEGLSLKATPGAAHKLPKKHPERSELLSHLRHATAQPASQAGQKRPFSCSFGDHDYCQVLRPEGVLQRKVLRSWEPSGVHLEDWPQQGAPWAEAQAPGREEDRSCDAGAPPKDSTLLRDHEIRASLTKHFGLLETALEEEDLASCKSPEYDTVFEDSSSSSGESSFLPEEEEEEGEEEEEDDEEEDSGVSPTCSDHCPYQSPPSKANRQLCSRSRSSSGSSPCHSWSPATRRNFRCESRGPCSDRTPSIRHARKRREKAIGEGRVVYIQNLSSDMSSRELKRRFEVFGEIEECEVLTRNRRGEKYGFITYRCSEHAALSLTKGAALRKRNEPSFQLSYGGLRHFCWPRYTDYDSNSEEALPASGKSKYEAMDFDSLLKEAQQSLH
UniProt Q8N3D4: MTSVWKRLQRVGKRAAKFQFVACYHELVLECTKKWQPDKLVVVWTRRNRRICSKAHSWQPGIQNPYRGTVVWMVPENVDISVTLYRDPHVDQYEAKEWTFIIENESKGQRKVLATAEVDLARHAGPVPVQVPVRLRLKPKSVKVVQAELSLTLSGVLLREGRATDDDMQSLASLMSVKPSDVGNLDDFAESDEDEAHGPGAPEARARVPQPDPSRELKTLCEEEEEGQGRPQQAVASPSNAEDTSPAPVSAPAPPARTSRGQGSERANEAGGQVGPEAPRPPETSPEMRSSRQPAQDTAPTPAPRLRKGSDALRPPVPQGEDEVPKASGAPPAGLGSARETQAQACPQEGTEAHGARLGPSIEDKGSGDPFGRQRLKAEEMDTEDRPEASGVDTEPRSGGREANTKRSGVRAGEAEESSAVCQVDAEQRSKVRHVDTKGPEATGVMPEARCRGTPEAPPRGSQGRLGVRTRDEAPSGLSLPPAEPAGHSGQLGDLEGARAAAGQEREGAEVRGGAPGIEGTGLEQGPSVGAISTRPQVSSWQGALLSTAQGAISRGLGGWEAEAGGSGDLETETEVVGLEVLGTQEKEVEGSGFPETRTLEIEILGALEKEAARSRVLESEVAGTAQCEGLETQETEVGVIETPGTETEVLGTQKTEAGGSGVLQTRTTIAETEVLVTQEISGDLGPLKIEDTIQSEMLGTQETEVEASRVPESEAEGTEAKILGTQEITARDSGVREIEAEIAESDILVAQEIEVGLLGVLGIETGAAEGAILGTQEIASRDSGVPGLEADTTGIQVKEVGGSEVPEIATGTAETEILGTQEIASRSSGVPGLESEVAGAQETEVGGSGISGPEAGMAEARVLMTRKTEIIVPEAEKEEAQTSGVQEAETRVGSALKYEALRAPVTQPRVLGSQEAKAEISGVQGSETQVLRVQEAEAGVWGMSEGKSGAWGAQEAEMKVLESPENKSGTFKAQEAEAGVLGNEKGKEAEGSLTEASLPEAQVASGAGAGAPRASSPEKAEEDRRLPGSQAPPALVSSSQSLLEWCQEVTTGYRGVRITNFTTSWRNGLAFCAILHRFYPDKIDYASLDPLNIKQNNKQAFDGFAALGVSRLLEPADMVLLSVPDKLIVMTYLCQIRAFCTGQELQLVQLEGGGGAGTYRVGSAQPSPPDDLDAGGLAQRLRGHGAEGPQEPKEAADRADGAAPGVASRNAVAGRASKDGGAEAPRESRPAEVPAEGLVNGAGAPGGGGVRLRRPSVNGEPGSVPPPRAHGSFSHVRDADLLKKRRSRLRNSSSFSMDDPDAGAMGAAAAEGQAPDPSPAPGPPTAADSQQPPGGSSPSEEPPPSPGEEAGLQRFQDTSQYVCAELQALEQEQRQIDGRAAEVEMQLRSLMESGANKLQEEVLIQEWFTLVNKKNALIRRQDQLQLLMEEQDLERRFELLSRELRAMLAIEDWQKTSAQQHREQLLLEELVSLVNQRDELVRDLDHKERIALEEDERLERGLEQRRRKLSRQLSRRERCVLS
UniProt Q8N2M8: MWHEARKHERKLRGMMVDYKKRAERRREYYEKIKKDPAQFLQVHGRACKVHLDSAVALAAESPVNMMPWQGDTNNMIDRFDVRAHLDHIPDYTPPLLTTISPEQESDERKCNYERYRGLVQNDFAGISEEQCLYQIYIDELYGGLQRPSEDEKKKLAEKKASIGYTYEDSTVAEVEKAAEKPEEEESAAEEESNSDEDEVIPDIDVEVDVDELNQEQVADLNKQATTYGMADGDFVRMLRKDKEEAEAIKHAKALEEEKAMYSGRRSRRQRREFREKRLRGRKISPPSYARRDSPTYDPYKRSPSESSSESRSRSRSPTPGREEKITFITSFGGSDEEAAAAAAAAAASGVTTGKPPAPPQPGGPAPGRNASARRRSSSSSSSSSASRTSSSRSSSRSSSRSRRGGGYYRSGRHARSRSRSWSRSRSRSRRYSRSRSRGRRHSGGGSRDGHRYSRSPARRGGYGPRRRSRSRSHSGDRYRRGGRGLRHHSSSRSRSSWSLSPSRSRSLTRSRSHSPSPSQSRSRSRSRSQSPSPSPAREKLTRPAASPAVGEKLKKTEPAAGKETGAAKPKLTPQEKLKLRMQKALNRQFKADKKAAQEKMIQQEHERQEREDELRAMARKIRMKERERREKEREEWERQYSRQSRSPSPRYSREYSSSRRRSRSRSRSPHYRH
UniProt Q8IUI4: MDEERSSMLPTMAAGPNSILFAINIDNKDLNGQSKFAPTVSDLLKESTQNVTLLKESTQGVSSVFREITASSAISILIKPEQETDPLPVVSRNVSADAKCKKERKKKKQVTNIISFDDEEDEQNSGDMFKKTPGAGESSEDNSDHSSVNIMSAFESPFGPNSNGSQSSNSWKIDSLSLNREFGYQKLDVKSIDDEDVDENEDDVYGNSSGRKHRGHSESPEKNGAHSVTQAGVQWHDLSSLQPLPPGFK
UniProt Q86X95: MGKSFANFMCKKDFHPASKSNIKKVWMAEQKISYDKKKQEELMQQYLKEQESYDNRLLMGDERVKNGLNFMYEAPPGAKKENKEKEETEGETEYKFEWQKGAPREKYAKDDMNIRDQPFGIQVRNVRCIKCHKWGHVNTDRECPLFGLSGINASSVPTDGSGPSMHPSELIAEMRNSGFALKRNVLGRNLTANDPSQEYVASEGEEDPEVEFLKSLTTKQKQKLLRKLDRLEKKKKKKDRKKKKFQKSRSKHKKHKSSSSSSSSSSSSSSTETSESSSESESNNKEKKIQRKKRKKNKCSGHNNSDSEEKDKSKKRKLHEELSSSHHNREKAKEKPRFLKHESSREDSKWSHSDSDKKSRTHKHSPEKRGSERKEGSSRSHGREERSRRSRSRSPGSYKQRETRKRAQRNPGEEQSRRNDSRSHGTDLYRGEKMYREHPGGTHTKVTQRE
UniProt Q8IUC4: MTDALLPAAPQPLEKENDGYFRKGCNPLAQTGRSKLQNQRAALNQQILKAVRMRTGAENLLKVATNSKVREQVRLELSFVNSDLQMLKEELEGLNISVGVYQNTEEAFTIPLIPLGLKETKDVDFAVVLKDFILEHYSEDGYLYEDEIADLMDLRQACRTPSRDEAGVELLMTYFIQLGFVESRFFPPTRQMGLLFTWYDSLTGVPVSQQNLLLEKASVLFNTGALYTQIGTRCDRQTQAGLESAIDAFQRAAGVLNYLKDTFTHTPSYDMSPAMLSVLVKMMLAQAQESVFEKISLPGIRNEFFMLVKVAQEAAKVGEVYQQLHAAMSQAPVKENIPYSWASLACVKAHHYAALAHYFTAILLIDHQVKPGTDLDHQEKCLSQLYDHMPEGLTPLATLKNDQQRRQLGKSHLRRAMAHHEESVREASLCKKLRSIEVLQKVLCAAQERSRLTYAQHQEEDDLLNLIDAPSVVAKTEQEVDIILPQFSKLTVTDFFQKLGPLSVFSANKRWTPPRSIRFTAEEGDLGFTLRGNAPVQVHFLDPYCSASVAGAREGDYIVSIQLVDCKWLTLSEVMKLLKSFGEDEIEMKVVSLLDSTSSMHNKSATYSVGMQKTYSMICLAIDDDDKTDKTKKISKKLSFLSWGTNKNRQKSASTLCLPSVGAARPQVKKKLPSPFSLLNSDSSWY

compound: CN[C@@H]1C[C@H]2O[C@@](C)([C@@H]1OC)n1c3ccccc3c3c4c(c5c6ccccc6n2c5c31)C(=O)NC4 [staurosporine]; assay: log2 fold change of tryptic peptide abundance, ligand vs vehicle (limited proteolysis) (log2 ratio); higher = more trypsin-susceptible (destabilized); settings: ligand concentration: 20 uM; sample: K562 cleared lysate; digestion: 4 min, 22 C (HT-PELSA RT4min, Orbitrap Astral)

Target	log2 fold change
SPATS2 (peptide sequence: YQSAPSQAPGNTIER, peptide start residue: 488) (UniProt Q86XZ4)	-0.322
UniProt Q8IYU8 (peptide sequence: GLWVPQHQSIQEYWK, peptide start residue: 398)	-0.46
FBXW8 (peptide sequence: RRPEAAER, peptide start residue: 27) (UniProt Q8N3Y1)	0.712
ANKMY2 (peptide sequence: KGELTQEEKELLEVIGK, peptide start residue: 6) (UniProt Q8IV38)	1.67
GCC2 (peptide sequence: MGDAHKELEQSHINYVK, peptide start residue: 113) (UniProt Q8IWJ2)	-0.86
CDR2L (peptide sequence: LEQSQPEYK, peptide start residue: 429) (UniProt Q86X02)	-0.292
UniProt Q8IXX5 (peptide sequence: HYTLDASLPLR, peptide start residue: 177)	-0.201
ASCC3 (peptide sequence: HREQLVIEVGR, peptide start residue: 949) (UniProt Q8N3C0)	-0.218
PPARGC1B (peptide sequence: ACSNPSQQVR, peptide start residue: 315) (UniProt Q86YN6)	0.69
ZNF100 (peptide sequence: FHITENSYQCK, peptide start residue: 226) (UniProt Q8IYN0)	-0.611
EHBP1L1 (peptide sequence: RPSVNGEPGSVPPPR, peptide start residue: 1255) (UniProt Q8N3D4)	0.488
PALB2 (peptide sequence: FTSPVSLEAQGK, peptide start residue: 283) (UniProt Q86YC2)	0.521
UniProt Q86X10 (peptide sequence: GISCLVDAFLGISRPR, peptide start residue: 341)	1.03
UBR1 (peptide sequence: VSEDLVSIHLPLSR, peptide start residue: 600) (UniProt Q8IWV7)	-0.361
SMYD4 (peptide sequence: MQEKDSLTESFPAALAK, peptide start residue: 198) (UniProt Q8IYR2)	-0.678
UniProt Q86YB8 (peptide sequence: LQTQGLGTALK, peptide start residue: 403)	0.378
UniProt Q8N2M8 (peptide sequence: SQSPSPSPAR, peptide start residue: 529)	0.655
UniProt Q8IUI4 (peptide sequence: FAPTVSDLLK, peptide start residue: 188)	0.0311
WDFY3 (peptide sequence: AHLQGPLSHPHPNPIEVR, peptide start residue: 3358) (UniProt Q8IZQ1)	0.376
UniProt Q86X95 (peptide sequence: SFANFMCK, peptide start residue: 4)	-0.242
MICALL2 (peptide sequence: TPRPASPGPSLPAR, peptide start residue: 644) (UniProt Q8IY33)	-0.343
RHPN2 (peptide sequence: VLCAAQER, peptide start residue: 442) (UniProt Q8IUC4)	-0.247
UniProt Q8IUE6 (peptide sequence: KTESHKPGK, peptide start residue: 120)	0.223
MAP7D3 (peptide sequence: EAVGGQAEDHLK, peptide start residue: 640) (UniProt Q8IWC1)	0.383
VWDE (peptide sequence: TGTFVLYK, peptide start residue: 446) (UniProt Q8N2E2)	-0.393
ZNF280B (peptide sequence: VTPGSWSR, peptide start residue: 64) (UniProt Q86YH2)	0.219
AMOTL1 (peptide sequence: VLHQELQGYYDNADKLHKFEK, peptide start residue: 454) (UniProt Q8IY63)	-0.233

Some of the entries so far, bar-delimited.
Target | log2 fold change
ZNF280B (peptide sequence: VTPGSWSR, peptide start residue: 64) (UniProt Q86YH2) | 0.219
AMOTL1 (peptide sequence: VLHQELQGYYDNADKLHKFEK, peptide start residue: 454) (UniProt Q8IY63) | -0.233
